The list shows a part of the results.
compound: CS(=O)(=O)c1ccc(-c2cnc(N)c(C(=O)Nc3ccccc3)n2)cc1; experiment: log2 fold change, soluble protein after heating vs DMSO (PISA); higher = thermal stabilisation; K562 cells, 10 uM, 30 min; active = over 0.2 and 3.5 SD of the protein, either way, in both replicates (recomputed)
In short: (§1)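 K562 cells at 2×10^6 cells/mL were treated for 30 min with 10 μM compound, and aliquots were heated for 3 min over 48°C-58°C before pooling. Extraction used PBS with 0.5% NP-40 at 4°C, and soluble protein was the supernatant after 21,000xg for 90 min, measured by TMTpro 16plex LC-MS/MS with channel sums equalised. Thermal stability values, relative to control samples and from duplicates, are log2 fold changes.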

Protein sequences, listed by entry. Tags and fused reporters are not part of them. Lines headed by an entry give the natural chain unless they say otherwise; changes in a name come on top.
UniProt O96019, whole entry, looked up: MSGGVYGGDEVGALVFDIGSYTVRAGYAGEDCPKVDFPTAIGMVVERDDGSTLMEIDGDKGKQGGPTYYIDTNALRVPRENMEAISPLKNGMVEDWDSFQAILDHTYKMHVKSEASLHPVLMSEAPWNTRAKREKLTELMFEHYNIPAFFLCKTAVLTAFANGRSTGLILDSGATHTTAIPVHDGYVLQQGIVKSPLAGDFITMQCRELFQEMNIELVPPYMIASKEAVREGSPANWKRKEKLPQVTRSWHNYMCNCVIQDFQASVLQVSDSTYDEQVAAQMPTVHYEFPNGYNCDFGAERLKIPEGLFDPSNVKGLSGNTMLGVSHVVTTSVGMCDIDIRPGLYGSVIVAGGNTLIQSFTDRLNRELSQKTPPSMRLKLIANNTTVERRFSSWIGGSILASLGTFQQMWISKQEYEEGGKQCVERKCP
UniProt Q9GZN1, whole entry, looked up: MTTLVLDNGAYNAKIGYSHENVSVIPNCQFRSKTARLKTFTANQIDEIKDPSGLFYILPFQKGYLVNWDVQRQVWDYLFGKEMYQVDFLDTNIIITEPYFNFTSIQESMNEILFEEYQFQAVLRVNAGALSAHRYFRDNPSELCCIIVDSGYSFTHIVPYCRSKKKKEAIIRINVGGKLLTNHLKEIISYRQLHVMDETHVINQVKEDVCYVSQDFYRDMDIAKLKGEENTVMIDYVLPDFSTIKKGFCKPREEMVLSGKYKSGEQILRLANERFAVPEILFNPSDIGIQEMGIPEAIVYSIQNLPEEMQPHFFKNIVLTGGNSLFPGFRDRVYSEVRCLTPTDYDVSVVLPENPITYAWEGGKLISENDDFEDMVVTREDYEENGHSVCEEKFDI
UniProt P28288: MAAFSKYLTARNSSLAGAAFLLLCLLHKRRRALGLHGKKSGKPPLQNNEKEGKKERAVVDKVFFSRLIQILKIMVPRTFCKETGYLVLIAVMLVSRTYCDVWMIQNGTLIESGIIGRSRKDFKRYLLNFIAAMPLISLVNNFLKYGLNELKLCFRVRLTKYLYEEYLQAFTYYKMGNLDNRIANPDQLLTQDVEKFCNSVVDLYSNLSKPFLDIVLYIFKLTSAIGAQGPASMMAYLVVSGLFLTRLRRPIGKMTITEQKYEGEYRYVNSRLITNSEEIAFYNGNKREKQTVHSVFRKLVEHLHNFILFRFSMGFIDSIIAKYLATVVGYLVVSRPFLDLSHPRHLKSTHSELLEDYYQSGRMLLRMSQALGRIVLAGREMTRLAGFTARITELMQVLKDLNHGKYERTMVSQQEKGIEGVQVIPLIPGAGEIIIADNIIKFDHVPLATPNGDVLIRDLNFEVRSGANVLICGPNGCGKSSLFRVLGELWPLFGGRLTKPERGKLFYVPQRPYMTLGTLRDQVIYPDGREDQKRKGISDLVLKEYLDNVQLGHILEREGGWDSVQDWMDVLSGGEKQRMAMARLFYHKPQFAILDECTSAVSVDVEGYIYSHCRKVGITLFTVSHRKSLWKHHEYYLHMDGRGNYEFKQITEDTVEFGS
UniProt P09110: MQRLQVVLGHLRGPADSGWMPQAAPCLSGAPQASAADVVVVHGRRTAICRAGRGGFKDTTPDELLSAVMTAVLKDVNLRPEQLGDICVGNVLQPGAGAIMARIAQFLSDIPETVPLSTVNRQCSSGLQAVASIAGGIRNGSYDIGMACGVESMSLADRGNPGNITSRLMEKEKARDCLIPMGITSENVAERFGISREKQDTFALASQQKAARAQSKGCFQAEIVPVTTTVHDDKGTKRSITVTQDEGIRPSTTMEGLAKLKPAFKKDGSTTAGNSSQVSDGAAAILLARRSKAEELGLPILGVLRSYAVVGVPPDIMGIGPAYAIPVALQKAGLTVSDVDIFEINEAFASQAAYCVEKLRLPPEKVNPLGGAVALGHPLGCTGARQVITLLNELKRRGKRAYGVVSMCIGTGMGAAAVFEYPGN
UniProt Q8NE71: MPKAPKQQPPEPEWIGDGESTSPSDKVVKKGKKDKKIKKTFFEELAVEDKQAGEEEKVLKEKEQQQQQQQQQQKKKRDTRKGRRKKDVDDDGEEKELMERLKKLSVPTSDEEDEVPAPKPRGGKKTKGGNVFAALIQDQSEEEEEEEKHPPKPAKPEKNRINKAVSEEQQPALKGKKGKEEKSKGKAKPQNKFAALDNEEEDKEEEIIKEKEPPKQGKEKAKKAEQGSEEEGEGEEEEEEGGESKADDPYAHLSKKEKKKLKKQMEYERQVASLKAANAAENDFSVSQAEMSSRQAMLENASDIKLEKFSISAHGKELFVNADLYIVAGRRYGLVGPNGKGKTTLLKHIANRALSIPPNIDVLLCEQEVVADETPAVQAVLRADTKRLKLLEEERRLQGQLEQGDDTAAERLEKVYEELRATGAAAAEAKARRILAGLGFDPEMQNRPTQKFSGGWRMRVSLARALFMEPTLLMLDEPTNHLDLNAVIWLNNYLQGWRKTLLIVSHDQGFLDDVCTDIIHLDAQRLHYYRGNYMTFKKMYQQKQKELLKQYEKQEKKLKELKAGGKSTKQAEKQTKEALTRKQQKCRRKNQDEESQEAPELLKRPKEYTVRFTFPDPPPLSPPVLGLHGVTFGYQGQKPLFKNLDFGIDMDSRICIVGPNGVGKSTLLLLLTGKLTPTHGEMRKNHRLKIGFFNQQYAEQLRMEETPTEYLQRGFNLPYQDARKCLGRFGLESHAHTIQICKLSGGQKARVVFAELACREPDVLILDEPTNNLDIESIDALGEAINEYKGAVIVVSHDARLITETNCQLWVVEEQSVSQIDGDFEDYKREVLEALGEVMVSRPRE
UniProt P49588, whole entry, looked up: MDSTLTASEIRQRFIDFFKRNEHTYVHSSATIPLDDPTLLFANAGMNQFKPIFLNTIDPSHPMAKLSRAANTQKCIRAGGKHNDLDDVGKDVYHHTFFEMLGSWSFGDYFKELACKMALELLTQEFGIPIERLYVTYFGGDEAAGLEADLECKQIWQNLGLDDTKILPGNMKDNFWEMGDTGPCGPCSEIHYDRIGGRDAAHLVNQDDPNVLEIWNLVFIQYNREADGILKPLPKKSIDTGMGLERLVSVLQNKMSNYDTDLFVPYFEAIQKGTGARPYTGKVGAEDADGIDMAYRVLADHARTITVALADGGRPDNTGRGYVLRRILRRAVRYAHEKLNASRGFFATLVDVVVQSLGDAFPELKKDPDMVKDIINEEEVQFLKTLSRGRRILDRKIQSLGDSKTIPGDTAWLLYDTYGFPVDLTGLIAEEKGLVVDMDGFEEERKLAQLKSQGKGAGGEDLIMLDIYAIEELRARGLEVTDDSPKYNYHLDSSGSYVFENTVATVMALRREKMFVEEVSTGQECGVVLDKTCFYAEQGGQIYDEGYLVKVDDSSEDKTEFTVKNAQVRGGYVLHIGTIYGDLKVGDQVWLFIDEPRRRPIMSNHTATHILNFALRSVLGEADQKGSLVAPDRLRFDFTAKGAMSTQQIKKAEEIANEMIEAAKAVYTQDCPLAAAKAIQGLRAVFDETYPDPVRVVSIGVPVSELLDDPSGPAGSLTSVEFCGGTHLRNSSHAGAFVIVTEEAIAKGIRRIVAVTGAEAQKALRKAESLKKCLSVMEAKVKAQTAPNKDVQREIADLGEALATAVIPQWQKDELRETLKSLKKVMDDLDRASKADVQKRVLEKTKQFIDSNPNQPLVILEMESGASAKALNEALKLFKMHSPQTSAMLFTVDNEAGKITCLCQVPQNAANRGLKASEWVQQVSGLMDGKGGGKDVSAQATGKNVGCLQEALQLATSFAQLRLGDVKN
UniProt P24752: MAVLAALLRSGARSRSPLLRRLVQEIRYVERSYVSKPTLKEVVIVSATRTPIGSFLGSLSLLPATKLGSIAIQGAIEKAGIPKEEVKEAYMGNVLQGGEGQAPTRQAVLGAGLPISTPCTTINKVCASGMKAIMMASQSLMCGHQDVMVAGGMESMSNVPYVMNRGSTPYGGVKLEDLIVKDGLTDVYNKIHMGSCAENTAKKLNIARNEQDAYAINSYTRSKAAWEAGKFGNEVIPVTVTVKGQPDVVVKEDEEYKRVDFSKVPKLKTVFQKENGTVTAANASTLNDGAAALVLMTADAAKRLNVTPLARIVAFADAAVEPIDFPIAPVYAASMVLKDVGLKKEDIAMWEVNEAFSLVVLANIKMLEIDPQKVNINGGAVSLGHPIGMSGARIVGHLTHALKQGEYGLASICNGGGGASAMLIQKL
UniProt O14672: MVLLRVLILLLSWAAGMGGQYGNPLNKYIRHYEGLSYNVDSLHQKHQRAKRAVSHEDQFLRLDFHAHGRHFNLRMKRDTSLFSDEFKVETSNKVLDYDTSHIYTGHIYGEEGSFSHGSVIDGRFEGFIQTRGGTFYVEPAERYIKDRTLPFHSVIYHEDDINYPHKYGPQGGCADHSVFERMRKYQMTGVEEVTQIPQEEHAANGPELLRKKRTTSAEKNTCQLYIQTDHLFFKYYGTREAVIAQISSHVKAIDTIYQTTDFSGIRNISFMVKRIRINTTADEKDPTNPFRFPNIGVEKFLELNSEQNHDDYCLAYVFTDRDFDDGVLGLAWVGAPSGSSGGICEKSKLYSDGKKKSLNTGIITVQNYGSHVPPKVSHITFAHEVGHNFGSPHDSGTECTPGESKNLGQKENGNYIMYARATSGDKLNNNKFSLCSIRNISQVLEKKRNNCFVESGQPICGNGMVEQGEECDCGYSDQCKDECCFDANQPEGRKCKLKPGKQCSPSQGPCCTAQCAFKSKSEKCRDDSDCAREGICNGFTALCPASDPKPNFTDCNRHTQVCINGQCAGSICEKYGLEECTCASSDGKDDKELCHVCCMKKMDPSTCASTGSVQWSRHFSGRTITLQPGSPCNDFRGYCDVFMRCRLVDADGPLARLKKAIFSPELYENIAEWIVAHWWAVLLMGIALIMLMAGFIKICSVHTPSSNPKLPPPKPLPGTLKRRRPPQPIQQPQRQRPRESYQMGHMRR
UniProt Q9NZ32, whole entry, looked up: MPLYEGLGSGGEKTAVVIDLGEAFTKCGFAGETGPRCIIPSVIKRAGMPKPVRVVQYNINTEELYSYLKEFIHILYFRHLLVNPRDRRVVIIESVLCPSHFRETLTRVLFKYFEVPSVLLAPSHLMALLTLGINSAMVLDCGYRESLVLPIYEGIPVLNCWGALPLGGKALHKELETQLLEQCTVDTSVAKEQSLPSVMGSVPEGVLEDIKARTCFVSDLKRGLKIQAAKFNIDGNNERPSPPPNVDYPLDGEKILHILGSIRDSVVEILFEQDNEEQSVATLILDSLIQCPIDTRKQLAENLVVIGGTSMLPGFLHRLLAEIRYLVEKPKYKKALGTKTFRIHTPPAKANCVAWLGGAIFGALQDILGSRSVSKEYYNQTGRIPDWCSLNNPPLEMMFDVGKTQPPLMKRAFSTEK
UniProt Q9NUQ8: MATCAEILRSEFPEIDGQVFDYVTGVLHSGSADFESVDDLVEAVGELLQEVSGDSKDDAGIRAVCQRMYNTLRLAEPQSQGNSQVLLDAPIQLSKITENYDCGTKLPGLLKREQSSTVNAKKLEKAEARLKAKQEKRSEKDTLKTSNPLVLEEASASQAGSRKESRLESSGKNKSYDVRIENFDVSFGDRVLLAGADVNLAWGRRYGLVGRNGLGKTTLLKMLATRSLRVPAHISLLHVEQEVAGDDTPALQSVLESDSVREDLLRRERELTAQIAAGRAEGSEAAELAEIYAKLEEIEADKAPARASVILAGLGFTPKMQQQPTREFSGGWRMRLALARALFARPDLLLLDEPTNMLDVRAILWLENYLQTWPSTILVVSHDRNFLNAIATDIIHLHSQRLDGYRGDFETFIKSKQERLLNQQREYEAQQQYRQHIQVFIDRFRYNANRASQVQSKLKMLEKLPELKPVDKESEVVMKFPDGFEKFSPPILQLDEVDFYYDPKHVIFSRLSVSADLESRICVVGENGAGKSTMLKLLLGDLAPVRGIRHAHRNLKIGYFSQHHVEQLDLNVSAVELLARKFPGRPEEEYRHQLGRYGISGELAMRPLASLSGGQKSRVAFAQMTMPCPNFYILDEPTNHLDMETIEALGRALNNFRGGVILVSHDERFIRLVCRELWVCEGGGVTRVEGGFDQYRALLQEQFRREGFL
UniProt Q03154: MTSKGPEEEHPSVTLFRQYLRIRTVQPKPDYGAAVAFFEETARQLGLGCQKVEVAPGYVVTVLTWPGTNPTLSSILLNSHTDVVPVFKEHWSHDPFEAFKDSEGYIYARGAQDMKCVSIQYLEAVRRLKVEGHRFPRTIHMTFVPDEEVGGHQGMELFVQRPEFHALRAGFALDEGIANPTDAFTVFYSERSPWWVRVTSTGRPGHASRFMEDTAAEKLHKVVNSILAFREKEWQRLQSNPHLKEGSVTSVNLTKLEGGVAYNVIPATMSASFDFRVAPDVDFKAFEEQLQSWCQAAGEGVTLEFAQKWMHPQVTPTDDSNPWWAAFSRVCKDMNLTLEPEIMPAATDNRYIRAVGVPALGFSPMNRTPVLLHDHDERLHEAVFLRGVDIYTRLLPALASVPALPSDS

Target	log2 fold change
AASDHPPT (UniProt Q9NRN7)	inactive: 0.006
ACTL6A (UniProt O96019)	inactive: 0.025
ABCB7 isoform 2 (UniProt O75027)	inactive: 0.018
ADAL (UniProt Q6DHV7)	inactive: 0.005
ACTR6 (UniProt Q9GZN1)	inactive: -0.015
ACO1 (UniProt P21399)	inactive: 0.023
ACTR3 (UniProt P61158)	inactive: 0.042
ABCD3 (UniProt P28288)	inactive: 0.062
ACAA1 (UniProt P09110)	inactive: 0.017
ABCE1 (UniProt P61221)	inactive: 0
ADAT2 (UniProt Q7Z6V5)	inactive: 0.009
ABCF1 (UniProt Q8NE71)	inactive: 0.008
ACTN4 (UniProt O43707)	inactive: -0.006
AARS (UniProt P49588)	inactive: 0.008
ACTL8 (UniProt Q9H568)	inactive: 0.057

compound: C[C@@H](Oc1cc(-c2cnn(C3CCNCC3)c2)cnc1N)c1c(Cl)ccc(F)c1Cl [crizotinib]; experiment: as above
In short: as §1

Target	log2 fold change
ACACA isoform 4 (UniProt Q13085)	inactive: -0.139
ACSS2 isoform 2 (UniProt Q9NR19)	inactive: 0.004
ACOX1 isoform 2 (UniProt Q15067)	inactive: -0.016
ACAT1 (UniProt P24752)	inactive: 0.09
ACTR2 (UniProt P61160)	inactive: 0.023
ACADS (UniProt P16219)	inactive: 0.038
ADAM10 (UniProt O14672)	inactive: 0.081
ABHD12 isoform 2 (UniProt Q8N2K0)	inactive: 0.048
ADAR isoform 4 (UniProt P55265)	inactive: 0.113
ACTR10 (UniProt Q9NZ32)	inactive: 0.061
ABLIM1 (UniProt O14639)	inactive: -0.033
ABCF3 (UniProt Q9NUQ8)	inactive: -0.046
ABRAXAS2 (UniProt Q15018)	inactive: 0.006
ACTA1 (UniProt P68133)	inactive: 0.065
ADAM17 (UniProt P78536)	inactive: 0.1
A2M (UniProt P01023)	inactive: 0.102
ACADSB (UniProt P45954)	inactive: -0.009
ACOT8 (UniProt O14734)	inactive: 0.034

Target	log2 fold change
ABCC4 (UniProt O15439)	inactive: 0.083
ACAD8 (UniProt Q9UKU7)	inactive: -0.07
ACY1 (UniProt Q03154)	inactive: 0.013
AASDHPPT (UniProt Q9NRN7)	inactive: 0.02
ACTL6A (UniProt O96019)	inactive: 0.022
ABCB7 isoform 2 (UniProt O75027)	inactive: -0.034
ADAL (UniProt Q6DHV7)	inactive: 0.12
ACTR6 (UniProt Q9GZN1)	inactive: -0.051
ACO1 (UniProt P21399)	inactive: 0.104
ACTR3 (UniProt P61158)	inactive: 0.032
ABCD3 (UniProt P28288)	inactive: 0.043
ACAA1 (UniProt P09110)	inactive: 0.014
ABCE1 (UniProt P61221)	inactive: 0.021
ADAT2 (UniProt Q7Z6V5)	inactive: -0.026
ABCF1 (UniProt Q8NE71)	inactive: -0.005
ACTN4 (UniProt O43707)	inactive: 0.075
AARS (UniProt P49588)	inactive: -0.035
ACTL8 (UniProt Q9H568)	inactive: 0.094

Reference: the supplement of paper PMC10849652
